Data from publication PMC5668883.
These are yes or no findings as the source states them, for the method shown. For some of these results: In cells and extracts the contact can be indirect. Some entries that bind do so weakly or less than the wild type.

Amino acid sequences for entries named in this document (tags omitted). Residues count along the entry.
UniProt P11142: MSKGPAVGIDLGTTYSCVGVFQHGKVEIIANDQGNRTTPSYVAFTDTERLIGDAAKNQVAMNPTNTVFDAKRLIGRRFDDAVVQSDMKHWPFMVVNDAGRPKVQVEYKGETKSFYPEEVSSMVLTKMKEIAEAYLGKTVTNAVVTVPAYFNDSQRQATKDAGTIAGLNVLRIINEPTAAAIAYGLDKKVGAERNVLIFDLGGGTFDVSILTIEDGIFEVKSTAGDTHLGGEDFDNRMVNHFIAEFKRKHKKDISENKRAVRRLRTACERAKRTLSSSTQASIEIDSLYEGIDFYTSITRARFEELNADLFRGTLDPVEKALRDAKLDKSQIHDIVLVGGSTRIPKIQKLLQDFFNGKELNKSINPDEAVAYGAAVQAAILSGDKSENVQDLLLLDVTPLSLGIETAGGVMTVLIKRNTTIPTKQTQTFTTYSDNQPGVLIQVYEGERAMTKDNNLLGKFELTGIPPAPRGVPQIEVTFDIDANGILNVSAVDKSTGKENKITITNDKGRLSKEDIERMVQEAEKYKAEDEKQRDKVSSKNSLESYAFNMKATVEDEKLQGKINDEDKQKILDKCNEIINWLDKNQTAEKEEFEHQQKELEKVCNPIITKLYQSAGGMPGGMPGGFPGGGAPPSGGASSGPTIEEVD
UniProt Q04206: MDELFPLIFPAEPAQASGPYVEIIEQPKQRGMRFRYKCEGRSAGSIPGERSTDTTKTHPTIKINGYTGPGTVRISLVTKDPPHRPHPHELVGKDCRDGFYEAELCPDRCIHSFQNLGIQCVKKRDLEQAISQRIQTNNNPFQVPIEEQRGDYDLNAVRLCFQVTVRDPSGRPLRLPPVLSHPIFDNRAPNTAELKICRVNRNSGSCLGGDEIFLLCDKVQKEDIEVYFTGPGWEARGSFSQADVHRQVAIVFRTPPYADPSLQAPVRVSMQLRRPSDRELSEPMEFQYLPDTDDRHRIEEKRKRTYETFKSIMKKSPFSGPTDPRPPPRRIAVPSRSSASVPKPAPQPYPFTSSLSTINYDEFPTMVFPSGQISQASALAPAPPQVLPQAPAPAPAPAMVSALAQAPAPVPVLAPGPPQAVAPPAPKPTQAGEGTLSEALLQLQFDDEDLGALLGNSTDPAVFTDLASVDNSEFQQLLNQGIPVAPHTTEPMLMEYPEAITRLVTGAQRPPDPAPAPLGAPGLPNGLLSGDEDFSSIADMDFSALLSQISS
UniProt P13473, residues 29-410: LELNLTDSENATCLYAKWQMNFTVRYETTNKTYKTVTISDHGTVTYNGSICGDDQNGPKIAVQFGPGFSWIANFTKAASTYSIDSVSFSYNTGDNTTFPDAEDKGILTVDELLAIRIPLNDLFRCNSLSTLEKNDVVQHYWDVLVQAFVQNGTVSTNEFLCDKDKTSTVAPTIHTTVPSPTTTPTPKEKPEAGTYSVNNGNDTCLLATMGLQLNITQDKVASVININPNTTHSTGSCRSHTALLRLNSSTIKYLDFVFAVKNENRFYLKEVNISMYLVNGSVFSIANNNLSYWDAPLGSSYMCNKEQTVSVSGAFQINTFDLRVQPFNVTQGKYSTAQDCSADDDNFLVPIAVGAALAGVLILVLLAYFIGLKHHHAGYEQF

Columns and labels:
[1] = molecular target: GST-HSC70 (UniProt P11142); assay: pull-down; GST fusion protein from E. coli on Glutathione Sepharose 4B, washed, incubated with whole-cell lysate of HEK293T cells expressing Flag-tagged proteins for 6 h at 4 °C, western blot; only the target purified
[2] = molecular target: GST-p65 (UniProt Q04206); assay: pull-down; GST or GST-p65 from E. coli on Glutathione Sepharose 4B, washed, incubated with His-tagged HSC70 from E. coli for 6 h at 4 °C, western blot; both purified
[3] = molecular target: Flag-HSC70-FL (UniProt P11142); assay: co-IP; HEK293T transfected with Flag-tagged p65 or Flag-tagged HSC70; Flag M2 beads 48 h post transfection, immunoblot
[4] = molecular target: HSC70 (endogenous) (human (endogenous in HEK293T)) (UniProt P11142); assay: co-IP; endogenous proteins; HEK293T cell lysates immunoprecipitated with anti-p65, anti-LAMP2 or anti-HSC70 antibodies, western blot
[5] = molecular target: LAMP2 (endogenous) (human (endogenous in HEK293T)) (UniProt P13473); assay: as above
[6] = molecular target: Flag-p65-full-length (UniProt Q04206); assay: co-IP; HEK293T transfected with Flag-tagged p65 or Flag-tagged HSC70; Flag M2 beads 48 h post transfection, immunoblot
[7] = molecular target: p65 (endogenous) (human (endogenous in HEK293T)) (UniProt Q04206); assay: co-IP; endogenous proteins; HEK293T cell lysates immunoprecipitated with anti-p65, anti-LAMP2 or anti-HSC70 antibodies, western blot

Question: How did the binding [1] turn out when “Flag-p65-full-length (from UniProt Q04206 1-551)” was run?
Answer: binds

Question: For His-HSC70 (from UniProt P11142 1-646), which binding [2] is on record?
Answer: binds

Question: Which results are given for “p65 (endogenous) (from UniProt Q04206 1-551)”?
Answer: binding [3]: binds; binding [4]: binds; binding [5]: binds

Question: For “HSC70 (endogenous) (from UniProt P11142 1-646)”, which binding [6] is on record?
Answer: binds

Question: And the binding [7]?
Answer: binds
